PubChem BioAssay AID1259254 – NCATS, 2017
This is one part, drawn at random, of about 59,000 reagents. About 1,550 of them (2.6%) were called active. 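G2 share is only a proxy for re-replication; each gene was hit by three separate siRNAs, and active genes were retested.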 A number with no mark means an inactive call. Reagents against one gene are numbered here. Further read-outs or replicates are left out here. Reagent sequences are not shown. Not given: the amount of reagent.

Purpose: 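Gene knock-downs that lead to re-replication, shown by excess G2 DNA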 (primary screen)
Cells: human HCT116 colorectal cancer cells
Knock-down reagent: single siRNA against human genes
Duration: 3 days
Measured: 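Imaged Hoechst DNA stain sorts each cell into a cycle phase by DNA amount; per plate, G2 fraction set to 0% for non-targeting and 100% for GMNN siRNA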
Reading the numbers: G2 robust z-score: higher = more G2 cells, more excess DNA replication
Rule for the call: 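Active siRNAs have a G2 robust z of 5 or more median absolute deviations over the median, which in these data means about 38% or higher of GMNN control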

MOB3B #1
- G2 robust z-score: 0.724

MOB3B #2
- G2 robust z-score: 5.04 (active)

MOB3B #3
- G2 robust z-score: -1.17

THAP3 #1
- G2 robust z-score: 1.93

THAP3 #2
- G2 robust z-score: -0.718

THAP3 #3
- G2 robust z-score: 0.562

HSDL1 #1
- G2 robust z-score: 0.429

HSDL1 #2
- G2 robust z-score: -0.932

HSDL1 #3
- G2 robust z-score: 4.39

LINC02226 #1
- G2 robust z-score: 0.959

LINC02226 #2
- G2 robust z-score: 0.599

LINC02226 #3
- G2 robust z-score: -0.659

TENT5A #1
- G2 robust z-score: 0.315

TENT5A #2
- G2 robust z-score: 1.59

TENT5A #3
- G2 robust z-score: 0.00955

A portion from the list above, for reference:
LINC02226 #1
- G2 robust z-score: 0.959

LINC02226 #2
- G2 robust z-score: 0.599

LINC02226 #3
- G2 robust z-score: -0.659

Continued:
CDC50A #1
- G2 robust z-score: -0.41

CDC50A #2
- G2 robust z-score: 0.573

CDC50A #3
- G2 robust z-score: 0.0651

GPNMB #1
- G2 robust z-score: -0.898

GPNMB #2
- G2 robust z-score: -0.688

GPNMB #3
- G2 robust z-score: -1.02

CYB5A #1
- G2 robust z-score: 3.63

CYB5A #2
- G2 robust z-score: 0.833

CYB5A #3
- G2 robust z-score: -0.606
